{"source": "PubChem BioAssay AID1508588 (Peter MacCallum Cancer Centre, 2020)", "assay": "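Genome-wide search for knock-downs that heighten vemurafenib action in melanoma cells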 (primary screen)", "cells": "human WM266.4 melanoma cells (BRAF V600 mutant)", "knock-down reagent": "siRNA pool against human genes, 40 nM", "timing": "96 h from transfection to read-out", "conditions": "vemurafenib 300 nM (about IC25), added 48 h after transfection, for 48 h; comparison arm got DMSO vehicle only", "measurement": "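Cell gain (DAPI nuclei at end minus before drug, mean of two replicates) and medium lactate by absorbance per cell, both as ratio to non-targeting siRNA, also grouped into fold-change classes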", "direction": "cell gain with vemurafenib: higher = more cell gain than with non-targeting siRNA; lactate per cell with vemurafenib: higher = more lactate made per cell", "rule for the call": "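a knock-down counts as enhancing when its fold-change classes with vehicle and with vemurafenib, taken together, show a stronger drug effect on cell gain or lactate per cell; exact class pairs not stated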", "meaning of the calls": "active = enhances vemurafenib effect; inactive = no enhancement seen", "note": "The whole screen tested about 18,000 reagents; below is a random part of them. Over the whole deposit, 790 (4.4%) are marked active. 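Calls rest on a combination of fold-change classes in drug and vehicle arms, not all shown here.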 Unmarked entries are inactive."}
{"Target gene": "DCAF11 (DDB1 and CUL4 associated factor 11)", "cell gain with vemurafenib": 0.68, "lactate per cell with vemurafenib": 0.71}
{"Target gene": "STAG2 (STAG2 cohesin complex component)", "cell gain with vemurafenib": 0.75, "lactate per cell with vemurafenib": 0.84}
{"Target gene": "PRSS1 (serine protease 1)", "cell gain with vemurafenib": 0.67, "lactate per cell with vemurafenib": 0.68}
{"Target gene": "TBX6 (T-box transcription factor 6)", "cell gain with vemurafenib": 0.73, "lactate per cell with vemurafenib": 0.67}
{"Target gene": "PRRG2 (proline rich and Gla domain 2)", "cell gain with vemurafenib": 0.66, "lactate per cell with vemurafenib": 0.6}
{"Target gene": "OR7A5 (olfactory receptor family 7 subfamily A member 5)", "cell gain with vemurafenib": 0.2, "lactate per cell with vemurafenib": 1.32}
{"Target gene": "B3GNT3", "cell gain with vemurafenib": 1.16, "lactate per cell with vemurafenib": 0.8}
{"Target gene": "TMPRSS11D (transmembrane serine protease 11D)", "cell gain with vemurafenib": -0.05, "lactate per cell with vemurafenib": 1.63}
{"Target gene": "DRC1 (dynein regulatory complex subunit 1)", "cell gain with vemurafenib": 0.41, "lactate per cell with vemurafenib": 1.1}
{"Target gene": "SERINC3 (serine incorporator 3)", "cell gain with vemurafenib": 0.98, "lactate per cell with vemurafenib": 0.47}
{"Target gene": "TAF11 (TATA-box binding protein associated factor 11)", "cell gain with vemurafenib": 0.95, "lactate per cell with vemurafenib": 0.72}
{"Target gene": "SLC39A13", "cell gain with vemurafenib": 0.51, "lactate per cell with vemurafenib": 0.74}
{"Target gene": "GDA (guanine deaminase)", "cell gain with vemurafenib": 0.61, "lactate per cell with vemurafenib": 0.82}
{"Target gene": "MAF (MAF bZIP transcription factor)", "cell gain with vemurafenib": 0.41, "lactate per cell with vemurafenib": 0.46}
{"Target gene": "PCDHB6 (protocadherin beta 6)", "cell gain with vemurafenib": 1, "lactate per cell with vemurafenib": 0.87}
{"Target gene": "FAM135A (family with sequence similarity 135 member A)", "cell gain with vemurafenib": 0.76, "lactate per cell with vemurafenib": 1.18}
{"Target gene": "ADRM1 (ADRM1 26S proteasome ubiquitin receptor)", "cell gain with vemurafenib": 0.38, "lactate per cell with vemurafenib": 0.62}
{"Target gene": "OCLN (occludin)", "cell gain with vemurafenib": 0.58, "lactate per cell with vemurafenib": 1.21}
{"Target gene": "ZNF552 (zinc finger protein 552)", "cell gain with vemurafenib": 0.31, "lactate per cell with vemurafenib": 1.27}

Sorted by “lactate per cell with vemurafenib” (descending): some entries from above
{"Target gene": "PCDHB6 (protocadherin beta 6)", "cell gain with vemurafenib": 1, "lactate per cell with vemurafenib": 0.87}
{"Target gene": "GDA (guanine deaminase)", "cell gain with vemurafenib": 0.61, "lactate per cell with vemurafenib": 0.82}
{"Target gene": "MAF (MAF bZIP transcription factor)", "cell gain with vemurafenib": 0.41, "lactate per cell with vemurafenib": 0.46}

Further entries follow:
{"Target gene": "PIGZ", "cell gain with vemurafenib": "0.32 (active)", "lactate per cell with vemurafenib": 0.66}
{"Target gene": "OR56A1 (olfactory receptor family 56 subfamily A member 1)", "cell gain with vemurafenib": 0.16, "lactate per cell with vemurafenib": 2.94}
{"Target gene": "DEFB115 (defensin beta 115)", "cell gain with vemurafenib": 0.68, "lactate per cell with vemurafenib": 0.52}
{"Target gene": "ANKRD39 (ankyrin repeat domain 39)", "cell gain with vemurafenib": 0.61, "lactate per cell with vemurafenib": 1.93}
{"Target gene": "ACVR2B (activin A receptor type 2B)", "cell gain with vemurafenib": 0.63, "lactate per cell with vemurafenib": 1.29}
{"Target gene": "S100A16 (S100 calcium binding protein A16)", "cell gain with vemurafenib": 0.71, "lactate per cell with vemurafenib": 0.92}
{"Target gene": "BCLAF3 (BCLAF1 and THRAP3 family member 3)", "cell gain with vemurafenib": 1.13, "lactate per cell with vemurafenib": 0.4}
{"Target gene": "NDUFS6 (NADH:ubiquinone oxidoreductase subunit S6)", "cell gain with vemurafenib": 0, "lactate per cell with vemurafenib": 1.39}
{"Target gene": "SDC2 (syndecan 2)", "cell gain with vemurafenib": 0.37, "lactate per cell with vemurafenib": 2}
{"Target gene": "PPP1R9B (protein phosphatase 1 regulatory subunit 9B)", "cell gain with vemurafenib": 0.31, "lactate per cell with vemurafenib": 0.72}
{"Target gene": "HADHA", "cell gain with vemurafenib": 1.17, "lactate per cell with vemurafenib": 0.64}
{"Target gene": "KIAA0319", "cell gain with vemurafenib": 0.54, "lactate per cell with vemurafenib": 1.25}
{"Target gene": "BARX2 (BARX homeobox 2)", "cell gain with vemurafenib": 0.39, "lactate per cell with vemurafenib": 1.58}
{"Target gene": "PRKCE (protein kinase C epsilon)", "cell gain with vemurafenib": 0.5, "lactate per cell with vemurafenib": 0.72}
{"Target gene": "CDH2 (cadherin 2)", "cell gain with vemurafenib": 0.52, "lactate per cell with vemurafenib": 1.12}
{"Target gene": "PSG3 (pregnancy specific beta-1-glycoprotein 3)", "cell gain with vemurafenib": 0.84, "lactate per cell with vemurafenib": 0.84}
{"Target gene": "KIR2DL4", "cell gain with vemurafenib": 0.92, "lactate per cell with vemurafenib": 1.11}
{"Target gene": "DUS2 (dihydrouridine synthase 2)", "cell gain with vemurafenib": 1.19, "lactate per cell with vemurafenib": 0.74}
{"Target gene": "BACE2 (beta-secretase 2)", "cell gain with vemurafenib": 0.52, "lactate per cell with vemurafenib": 1.2}
{"Target gene": "MMP9 (matrix metallopeptidase 9)", "cell gain with vemurafenib": 0.51, "lactate per cell with vemurafenib": 0.92}
{"Target gene": "VTI1B (vesicle transport through interaction with t-SNAREs 1B)", "cell gain with vemurafenib": 0.9, "lactate per cell with vemurafenib": 1.03}
